In PMC4520684:
Results are given in words; binding and its absence hold for the method and conditions named. In cells and extracts the contact can be indirect. A result given as binding can be weak or reduced; the word gives no strength. Tags and fused reporters may be left off the sequences shown.

Protein sequences, listed by entry. Tags and fused reporters are not part of them. Lines headed by an entry give the natural chain unless they say otherwise; changes in a name come on top.
UniProt O95390: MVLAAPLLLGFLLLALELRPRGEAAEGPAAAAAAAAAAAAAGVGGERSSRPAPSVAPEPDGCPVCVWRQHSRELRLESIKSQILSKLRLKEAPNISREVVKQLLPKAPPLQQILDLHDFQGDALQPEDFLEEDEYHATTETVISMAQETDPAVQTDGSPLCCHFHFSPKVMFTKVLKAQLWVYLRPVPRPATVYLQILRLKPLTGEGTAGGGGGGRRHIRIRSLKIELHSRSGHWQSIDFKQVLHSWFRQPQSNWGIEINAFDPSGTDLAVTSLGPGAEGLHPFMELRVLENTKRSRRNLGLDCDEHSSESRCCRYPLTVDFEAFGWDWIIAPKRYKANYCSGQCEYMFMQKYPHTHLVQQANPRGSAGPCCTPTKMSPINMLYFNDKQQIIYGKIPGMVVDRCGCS
UniProt O14793: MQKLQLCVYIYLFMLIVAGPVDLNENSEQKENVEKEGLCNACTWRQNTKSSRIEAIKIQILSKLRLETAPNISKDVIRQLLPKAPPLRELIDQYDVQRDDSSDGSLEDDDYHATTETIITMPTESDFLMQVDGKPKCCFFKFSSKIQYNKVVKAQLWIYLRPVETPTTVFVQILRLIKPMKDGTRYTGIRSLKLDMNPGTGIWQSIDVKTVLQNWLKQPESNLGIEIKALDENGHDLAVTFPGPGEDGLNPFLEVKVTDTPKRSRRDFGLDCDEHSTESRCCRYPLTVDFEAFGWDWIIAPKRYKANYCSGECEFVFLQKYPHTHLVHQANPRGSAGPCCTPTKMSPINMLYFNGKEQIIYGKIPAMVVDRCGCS

Legend:
[1] = target: HA-tagged full-GDF11 (prodomain + ligand) (UniProt O95390); assay: co-IP; COS-7 cells co-transfected with FLAG-tagged inhibitory core and V5- or HA-tagged ligand or receptor; whole cell extracts (50 mM Tris-HCl pH 7.4, 50 mM NaCl, 1% Triton X-100, 100 mM octyl glucoside) precipitated with anti-FLAG, anti-V5 or anti-HA agarose and immunoblotted
[2] = target: V5-tagged full-myostatin (prodomain + ligand) (UniProt O14793); assay: as above

CTWRQNTKSSRIEAIKIQILSKLRLETAP (domain or fragment) [FLAG-tagged inhibitory core of the myostatin prodomain]
binding [1]: binds
binding [2]: binds
